Test results taken from PubChem BioAssay AID493027 (The Scripps Research Institute Molecular Screening Center, 2011).
Several values for one entry are separate records, joined by “and”; a condition that tells them apart may be missing. Identical values can stand only once. In all, about 2,000 compounds went through this assay and about 45 (2%) were called active.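 How the source made its calls: active means inhibition above the screen-wide mean inhibition plus 3 SD (cut at about 44% in these data); inactive means the rest.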 This is one part of the list. Where a SMILES comes first, the peptide text is derived from it.

Amino acid sequences for entries named in this document (tags omitted). A change or cut given only in a name is not applied to a line headed by its entry.
UniProt O60240: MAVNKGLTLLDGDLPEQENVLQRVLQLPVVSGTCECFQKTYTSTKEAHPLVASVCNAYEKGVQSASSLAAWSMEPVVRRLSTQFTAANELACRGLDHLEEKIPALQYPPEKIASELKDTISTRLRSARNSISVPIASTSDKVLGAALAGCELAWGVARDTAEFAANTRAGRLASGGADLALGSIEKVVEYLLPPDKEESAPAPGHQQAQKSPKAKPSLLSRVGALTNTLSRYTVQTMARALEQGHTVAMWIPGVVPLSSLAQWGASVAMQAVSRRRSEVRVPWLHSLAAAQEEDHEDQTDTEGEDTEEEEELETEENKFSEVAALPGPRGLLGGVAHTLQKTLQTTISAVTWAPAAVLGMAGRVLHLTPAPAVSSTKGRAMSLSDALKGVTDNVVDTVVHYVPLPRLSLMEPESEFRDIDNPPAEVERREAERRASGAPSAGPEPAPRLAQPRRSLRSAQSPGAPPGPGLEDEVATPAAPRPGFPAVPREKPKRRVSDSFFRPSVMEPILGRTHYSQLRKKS
UniProt Q8WTS1: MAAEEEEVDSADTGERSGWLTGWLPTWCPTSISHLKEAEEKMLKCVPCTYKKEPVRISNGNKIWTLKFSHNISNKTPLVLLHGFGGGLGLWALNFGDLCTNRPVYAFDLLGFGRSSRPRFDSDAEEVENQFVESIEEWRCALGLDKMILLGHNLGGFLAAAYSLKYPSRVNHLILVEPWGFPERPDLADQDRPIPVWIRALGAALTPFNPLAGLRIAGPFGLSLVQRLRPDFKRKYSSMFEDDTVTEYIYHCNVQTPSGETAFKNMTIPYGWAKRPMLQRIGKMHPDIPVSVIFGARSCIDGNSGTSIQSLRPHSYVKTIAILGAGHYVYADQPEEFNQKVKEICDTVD

What follows are compounds tested against Perilipin-1 (Homo sapiens) + 1-acylglycerol-3-phosphate O-acyltransferase ABHD5 (Homo sapiens) (UniProt O60240+Q8WTS1) (assay: blockers of ABHD5 binding to perilipin-1 – cell lysate, split luciferase complementation, luminescence, NIH validation set, pilot screen (AID 493027;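 further: 0% = DMSO wells with the 100% control not disclosed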)). Conditions: split G. princeps luciferase complementation, 4 h, at 7.9 µM, hits give high values.

| SMILES | inhibition |
| --- | --- |
| CC(C)[C@@]1(NC(=O)[C@@H]2C[C@@H]3c4cccc5[nH]cc(c45)C[C@H]3N(C)C2)O[C@@]2(O)[C@@H]3CCCN3C(=O)[C@H](Cc3ccccc3)N2C1=O | inactive: 2.77% |
| CCOc1ccc(C2C(C#N)=C(N)Oc3c2c(=O)oc2ccccc32)cc1 (stereo not given) | inactive: 18% |
| CC(C)CC12CN3CCN(CC(C3)C1O)C2 (stereo not given) | inactive: -1.84% |
| CC12CCC3C(CC=C4CC5(CCC43C)OCCO5)C1CCC2=O (stereo not given) | inactive: 1.83% |
| C[N+]1(C)CCOC(O)(c2ccc(-c3ccc(C4(O)C[N+](C)(C)CCO4)cc3)cc2)C1 (stereo not given) | inactive: -7.75% |
| Nc1ccncc1 | inactive: -6.43% |
| C[C@]12CCC(=O)C=C1CC[C@@H]1[C@@H]2C(=O)C[C@]2(C)C(=O)CC[C@@H]12 | inactive: -8.9% |
| COc1ccc(C(=O)N2CCCC2=O)cc1 | inactive: 0.79% |
| O=C(O)CCCc1ccc(N(CCCl)CCCl)cc1 | inactive: -0.58% |
| Cc1cc(Cl)ccc1OCC(=O)O | inactive: 3.97% |
| CN1C(=O)N(C)C(=O)C2(Cc3ccccc3N3CCOCC32)C1=O (stereo not given) | inactive: -5.65% |
| COc1cc2c3cc1Oc1cc(ccc1O)C[C@@H]1c4c(cc(OC)c(O)c4Oc4ccc(cc4)C[C@H]3N(C)CC2)CCN1C | inactive: 0.1% |
| NNC(=O)c1ccc(Cl)cc1 | inactive: 1.77% |
| CCNC(=S)N(C)CCc1cc2c(c(OC)c1C=C1C(=O)N(C)C(=O)N(C)C1=O)OCO2 | inactive: 8.23% |
| Clc1ccc(CSC(Cn2ccnc2)c2ccc(Cl)cc2Cl)cc1 (stereo not given) | inactive: 3.48% |
| CCCC[N+]1(C)[C@@H]2CC(OC(=O)[C@H](CO)c3ccccc3)C[C@H]1[C@@H]1O[C@@H]12 (stereo not given in full) | inactive: -0.83% |
| CC(CCc1ccccc1)NC(C)C(O)c1ccc(O)cc1 (stereo not given) | inactive: -9.55% |
| C[C@H](O)[C@H]1CC[C@H]2[C@@H]3CCC4=CC(=O)CC[C@]4(C)[C@H]3CC[C@]12C | inactive: 0.91% |
| CC(C)C[C@H](NC(=O)[C@@H]1CCCN1C(=O)[C@@H](N)Cc1ccc(O)cc1)C(=O)NCC(N)=O (H-YPLG-NH2) | inactive: -12.4% |
| O=C1CN=C(c2ccccc2F)c2cc(Cl)ccc2N1 | inactive: -9.42% |
| C[C@]12CC[C@@H](O)C[C@@H]1CC[C@@H]1[C@@H]2CC[C@]2(C)[C@@H](O)CC[C@@H]12 | inactive: -2.81% |
| OC1CCCCC1N1CCC(c2ccccc2)CC1 (stereo not given) | inactive: 1.48% |
| COc1ccc2c(c1)CC1(CN2C)C(=O)NC(=O)N(CCc2ccccc2)C1=O (stereo not given) | inactive: -15.2% |

| SMILES | inhibition |
| --- | --- |
| C[C@H]1CCC/C=C/C2C[C@H](O)CC2[C@H](O)/C=C/C(=O)O1 (stereo not given in full) | inactive: -12.9% |
| CC(=O)OC1C2CCC1C(N1CCCC1)CC2 (stereo not given) | inactive: -2.68% |
| CC(Cc1ccccc1)NCC(=O)Nc1cc(N(C)C)nc2ccccc12 (stereo not given) | inactive: 5.78% |
| C[C@H]1CCCC(=O)CCC/C=C/c2cc(O)cc(O)c2C(=O)O1 | inactive: 3.77% |
| Cc1ccsc1C(=O)C1CCCN(Cc2cc3ccccc3o2)C1 (stereo not given) | inactive: 0.42% |
| Cc1ccc(-n2c(C)cc(/C=C3/C(=O)NC(=O)N(C)C3=O)c2C)cc1 | inactive: 38.2% |
| CC(C)[N+](C)(CCC(C(N)=O)(c1ccccc1)c1ccccc1)C(C)C | inactive: -6.47% |
| C#C[C@]1(O)CC[C@H]2[C@@H]3CCC4=CC(=O)CC[C@]4(C)[C@H]3CC[C@@]21C | inactive: -2.67% |
| O=c1[nH]c2ccccc2n1CCCN1CCC(n2c(=O)[nH]c3cc(Cl)ccc32)CC1 | inactive: -3.35% |
| C[C@@H]1O[C@@H](O[C@H]2C[C@@H](O)[C@]3(CO)[C@H]4[C@H](O)C[C@]5(C)[C@@H](C6COC(=O)C6)CC[C@]5(O)[C@@H]4CC[C@]3(O)C2)[C@H](O)[C@H](O)[C@H]1O (stereo not given in full) | inactive: -9.04% |
| O=C1CCCC2=C1C(c1cccnc1)Nc1ccccc1N2 (stereo not given) | inactive: -3.96% |
| CC[C@@H]1C(=O)OC[C@@H]1Cc1cncn1C | inactive: -9.03% and inactive: -8.34% |
| C#CCN(C)C(C)Cc1ccccc1 (stereo not given) | inactive: -10.3% |
| CC12CCC3C(CC=C4CC(O)CCC43C)C1C/C(=C\c1cccc(F)c1)C2=O (stereo not given) | inactive: -4.03% |
| CC12CN3CC(C)(CN(C1)C31CCOCC1)C2=O | inactive: -12.2% |
| CC12CC[C@H]3[C@@H](CCC4(O)C[C@H](O)CCC34/C=N/NC(=O)Cc3ccccc3)C1(O)CCC2C1=CC(=O)OC1 (stereo not given in full) | inactive: -9.14% |
| CC[C@]12C=CCN3CCC4(c5cc(Br)c(OC)cc5N(C)C4[C@@](O)(C(=O)OC)[C@@H]1OC(C)=O)C32 (stereo not given in full) | inactive: -6.46% |
| C[C@]12CC[C@@H](O)C[C@@H]1CC[C@@H]1[C@@H]2CC[C@]2(C)C(=O)CC[C@@H]12 | inactive: -5.75% |
| CCOC(=O)C1=C(C)OC(N)=C(C(=O)OCC)[C@@]12C(=O)N(CC(N)=O)c1ccccc12 | inactive: -12.1% |
| C[N+]1(C)[C@@H]2CC[C@H]1CC(OC(=O)C(CO)c1ccccc1)C2 (stereo not given in full) | inactive: 1.36% |
| C=C1[C@@H](C)[C@H]2[C@H](Cc3ccccc3)NC(=O)[C@]23OC(=O)/C=C/[C@H](O)CCC[C@@H](C)C/C=C/[C@H]3[C@@H]1O | inactive: -2.63% |
| CC/C(=C\C=C\[C@@H]1C=C[C@@H]2CCC[C@H]2[C@@H]1C(=O)c1ccc[nH]1)[C@@H]1O[C@@H]([C@@H](C)C(=O)O)CC[C@@H]1C | inactive: 5.93% |
| CCNC(=O)[C@H]1O[C@@H](n2cnc3c(N)ncnc32)[C@H](O)[C@@H]1O | inactive: 3.39% |

| SMILES | inhibition |
| --- | --- |
| CCn1ccnc1CN1CCCC(C(=O)c2cc(F)ccc2OC)C1 (stereo not given) | inactive: -4.97% |
| Cc1cccc(C)c1NC1=NCCCS1 | inactive: -1.75% |
| NC(=O)CN1CCCC1=O | inactive: -9.43% |
| Cc1cc(OCc2cc(C(=O)O)oc2C)c2c3c(c(=O)oc2c1)CCCC3 | inactive: 3.39% |
| O=C1NC(=O)C2(Cc3ccccc3N3CCCC32)C(=O)N1c1ccc(Cl)cc1 (stereo not given) | inactive: 7.58% |
| Cc1nc2ccccc2c(=O)n1-c1ccc(C(=O)O)cc1 | inactive: 5.87% |
| Cc1c2ccncc2c(C)c2c1[nH]c1ccccc12 | inactive: -2.7% |
| COc1cc(/C=C2\C(=O)NC(=O)N(c3ccccc3)C2=O)c([N+](=O)[O-])cc1OC | active: 58.1% |
| O=C1C(=O)c2ccccc2-c2ccccc21 | inactive: 29.2% |
| CN1C2CCC1CC(OC(=O)CCN1CCCC1)C2 (stereo not given) | inactive: -6.27% |
| CCOC(=O)C(C)Oc1cc(C)cc2oc(=O)c3c(c12)CCCC3 (stereo not given) | inactive: 3.83% |
| CN1CC[C@@]23CCCC[C@@H]2[C@@H]1Cc1ccc(O)cc13 | inactive: -8.83% |
| CCC(COC(=O)c1cc(OC)c(OC)c(OC)c1)(c1ccccc1)N(C)C (stereo not given) | inactive: -0.74% |
| C[N+](C)(C)Cc1ccccc1 | inactive: -1.49% |
| O=c1[nH]c(=S)n(-c2ccccc2)c(O)c1/C=N/N1CCCCC1c1cccnc1 (stereo not given) | inactive: -7.25% |
| CC1CCC[C@H](O)CCCCCc2cc(O)cc(O)c2C(=O)O1 (stereo not given in full) | inactive: 5.06% |
| COc1ccc(Cc2nccc3cc(OC)c(OC)cc23)cc1OC | inactive: -9.66% |
| CN1C2CCC1CC(OC(=O)c1ccc(Cl)cc1)C2 (stereo not given) | inactive: -6.11% |
| CC(C)(C)NCC(O)c1cc(Cl)c(N)c(Cl)c1 (stereo not given) | inactive: -7.17% |
| CCOC(=O)c1cc2c(cn1)[nH]c1ccccc12 | inactive: -10.8% |
| COP(=S)(OC)SCN1C(=O)c2ccccc2C1=O | active: 83.3% |
| C[C@H]1CCC[C@H](O)CCCCCc2cc(O)cc(O)c2C(=O)O1 | inactive: -2.04% |
| COC1=CC(=O)OC(/C=C/c2ccccc2)C1 (stereo not given) | inactive: -1.24% |

| SMILES | inhibition |
| --- | --- |
| Clc1ccc(C2NCCc3[nH]cnc32)cc1 (stereo not given) | inactive: 1.77% |
| CC12CN3CC(C)(CN(C1)C3c1cccs1)C2O (stereo not given) | inactive: -4.71% |
| CC(C)NC(C)C(=O)c1ccc2ccccc2c1 (stereo not given) | inactive: -0.73% |
| CCN1CC2(COC(=O)c3ccccc3N)CCC(OC)C34C5CC6C(OC)CC(O)(C5C6OC)C(O)(C(OC)C23)C14 (stereo not given) | inactive: 2.67% |
| COc1ccc(OC)c([C@@H](O)[C@H](C)NC(C)(C)C)c1 | inactive: -2.34% |
| NCCc1ccc(O)cc1 | inactive: 0.45% |
| C[N+]1(C)CCN(c2ccccc2)CC1 | inactive: -0.58% |
| COc1ccc2c3c([nH]c2c1)C(C)=NCC3 | inactive: -5.28% |
| CC(=O)C1=C(C)OC(N)=C(C(=O)OC(C)C)C12C(=O)Nc1ccccc12 (stereo not given) | inactive: -5.18% |
| O=S(=O)(c1ccc(F)cc1)N1CCCCC1c1cccnc1 (stereo not given) | inactive: -1.77% |
| [N-]=[N+]=CC(=O)OC[C@H](N)C(=O)O | inactive: 0.75% |
| Fc1ccc(C(OCCN2CCCC2)c2ccc(Br)cc2)cc1 (stereo not given) | inactive: 1.09% |
| CCCC(C)(COC(N)=O)COC(=O)NC(C)C (stereo not given) | inactive: -9.71% |
| CN1[C@@H]2CC[C@H]1CC(OC(=O)C1C=Nc3ccccc31)C2 (stereo not given in full) | inactive: -2.17% |
| OC(c1ccccc1)(c1ccccc1)C1CCNCC1 | inactive: -12.8% |
| C[C@]12CCC(=O)C=C1CC[C@@H]1[C@@H]2CC[C@]2(C)C(=O)CC[C@@H]12 | inactive: -3.1% |
| COc1ccc(-c2nc3ccccc3c(=O)o2)cc1 | inactive: 1.35% |
| C[C@H]1OC[C@@H](C[N+](C)(C)C)O1 | inactive: -10.9% |
| Clc1ccc(COC(Cn2ccnc2)c2ccc(Cl)cc2Cl)c(Cl)c1 (stereo not given) | inactive: 4.04% |
| O=C1CSC2N1CCNC21CCCCC1 (stereo not given) | inactive: -3.04% |
| COc1ccc(OC)c(C(O)C(C)N)c1 (stereo not given) | inactive: 7.51% |
